Laboratory results from patent US6124290A, “Polycyclic phthalazine compounds and their use” (Gruenenthal GmbH, priority 1996, dated 2000).

System: Enterococcus faecium 64/3
Experiment: MIC, micro-broth dilution test according to DIN 58 940 (Part 8)
Assay type: cell-based
Conditions: 64/3, read-out: MIC, Enterococcus faecium 64/3
Protocol: The minimum inhibiting concentration (MIC) of the compounds was tested, in a micro-broth dilution test according to DIN 58 940 (Part 8), against the following bacterial strains: Staphylococcus aureus, strains 8325-4 (a sensitive Staphylococcus aureus strain which is representative of the species), NCTC 6571 (a sensitive international control strain), 108/83 (an "old" MRSA without quinolone-resistance), 134/94 (a "new" MRSA, with quinolone-resistance), Staphylococcus epidermidis CCM 2124 (a sensitive control strain), Enterococcus faecium 70/90 (a vancomycin-resistant strain) and 64/3 (a sensitive strain).

SMILES: O=C(O)c1cn(C2CC2)c2cc(N3CCNCC3)c(F)cc2c1=O [ciprofloxacin]
- MIC: < 250 µg/mL
